Some of the results follow. Repeats are few or missing, and single values can be far off.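 Imaging used 1,536-well plates; nuclei positive for cleaved PARP by antibody were divided by total DNA-stained nuclei to yield the apoptosis fraction. Doses for screening kept most cells viable, and cell lines differ markedly in resting and induced cleaved-PARP levels.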
Assays:
Test in all cases: cleaved PARP positive nuclei fraction relative to DMSO control; melanoma cells; higher = more apoptosis
Details in all cases: library dose: low library concentration; 72 h
WM115 = tested on: WM115
WM1716 = tested on: WM1716
WM1745 = tested on: WM1745
WM3526 = tested on: WM3526
WM3619 = tested on: WM3619
WM451Lu = tested on: WM451Lu

SMILES	cleaved PARP positive nuclei fraction (WM115) [%]	cleaved PARP positive nuclei fraction (WM1716) [%]	cleaved PARP positive nuclei fraction (WM1745) [%]	cleaved PARP positive nuclei fraction (WM3526) [%]	cleaved PARP positive nuclei fraction (WM3619) [%]	cleaved PARP positive nuclei fraction (WM451Lu) [%]
O=c1[nH]nc(Sc2ncc([N+](=O)[O-])s2)n1-c1ccc2c(c1)OCCO2 + COCC[n+]1c2c(n(Cc3cnccn3)c1C)C(=O)c1ccccc1C2=O [YM155] (first compound 0.2 µM, partner dose 0.0004 µM)	195	70.9	95.5	170	176	356
O=c1[nH]nc(Sc2ncc([N+](=O)[O-])s2)n1-c1ccc2c(c1)OCCO2 + CCN(CC)CCNC(=O)c1c(C)[nH]c(/C=C2\C(=O)Nc3ccc(F)cc32)c1C [sunitinib] (first compound 0.2 µM, partner dose 0.4 µM)	99.1	28.9	97.1	31.5	90.3	102
CCCCCCCCCCCCCCCCCCOP(=O)([O-])OC1CC[N+](C)(C)CC1 [Perifosine] + N#Cc1c(O)c2c(-c3ccc(-c4ccccc4O)cc3)csc2[nH]c1=O [A769662] (first compound 0.4 µM, partner dose 2 µM)	88.9	73.1	94.8	86.3	112	71.5
Cc1cn(-c2cc(NC(=O)c3ccc(C)c(Nc4nccc(-c5cccnc5)n4)c3)cc(C(F)(F)F)c2)cn1 [nilotinib] + CC(C)CCN1c2nc(Nc3cc(F)c(O)c(F)c3)ncc2N(C)C(=O)C1C [BID1870] (first compound 0.2 µM, partner dose 0.2 µM)	153	24.5	103	70.7	81.8	130
Cc1cc(Nc2cc(N3CCN(C)CC3)nc(Sc3ccc(NC(=O)C4CC4)cc3)n2)n[nH]1 [Tozasertib] + Oc1nc(-c2ccc(C(F)(F)F)cc2)nc2c1CSCC2 [XAV939] (first compound 0.006 µM, partner dose 2 µM)	168	338	120	78.2	111	122
COc1cc([C@@H]2c3cc4c(cc3[C@@H](O[C@@H]3O[C@@H]5CO[C@@H](C)O[C@H]5[C@H](O)[C@H]3O)[C@H]3COC(=O)[C@H]23)OCO4)cc(OC)c1O [etoposide] + COc1cc2c(Oc3ccc4[nH]c(C)cc4c3F)ncnc2cc1OCCCN1CCCC1 [cediranib] (first compound 0.02 µM, partner dose 0.4 µM)	7.79	105	91.4	86.9	109	193
O=C(/C=C/c1cccnc1)NCCCCC1CCN(C(=O)c2ccccc2)CC1 + Nc1cccc2c1CN(C1CCC(=O)NC1=O)C2=O [lenalidomide] (first compound 0.01 µM, partner dose 1 µM)	62	144	105	127	97.6	94.7
COc1cc([C@@H]2c3cc4c(cc3[C@@H](O[C@@H]3O[C@@H]5CO[C@@H](C)O[C@H]5[C@H](O)[C@H]3O)[C@H]3COC(=O)[C@H]23)OCO4)cc(OC)c1O [etoposide] + CN(NC(=O)CC(=O)NN(C)C(=S)c1ccccc1)C(=S)c1ccccc1 [STA4783] (first compound 0.02 µM, partner dose 0.006 µM)	122	126	177	26.8	142	–
Cc1cc(Nc2cc(N3CCN(C)CC3)nc(Sc3ccc(NC(=O)C4CC4)cc3)n2)n[nH]1 [Tozasertib] + Cc1cc(N2CCOCC2)cc2[nH]c(-c3c(NC[C@@H](O)c4cccc(Cl)c4)cc[nH]c3=O)nc12 [BMS536924] (first compound 0.006 µM, partner dose 0.2 µM)	104	79	114	125	101	56.9
COc1cc([C@@H]2c3cc4c(cc3[C@@H](O[C@@H]3O[C@@H]5CO[C@@H](C)O[C@H]5[C@H](O)[C@H]3O)[C@H]3COC(=O)[C@H]23)OCO4)cc(OC)c1O [etoposide] + COc1cc2ncnc(Nc3ccc(Oc4ccccc4)cc3)c2cc1OC [SrcI1] (first compound 0.02 µM, partner dose 2 µM)	138	252	108	95.1	250	191
COc1cc([C@@H]2c3cc4c(cc3[C@@H](O[C@@H]3O[C@@H]5CO[C@@H](C)O[C@H]5[C@H](O)[C@H]3O)[C@H]3COC(=O)[C@H]23)OCO4)cc(OC)c1O [etoposide] + CC(C)C[C@H](NC(=O)[C@H](Cc1ccccc1)NC(=O)c1cnccn1)B(O)O [Bortezomib] (first compound 0.02 µM, partner dose 0.001 µM)	77.4	459	159	60.5	235	58.5
Cc1cn(-c2cc(NC(=O)c3ccc(C)c(Nc4nccc(-c5cccnc5)n4)c3)cc(C(F)(F)F)c2)cn1 [nilotinib] + O=C(CCCCCCC(=O)Nc1ccccc1)NO [vorinostat] (first compound 0.2 µM, partner dose 0.08 µM)	104	179	109	58.7	94.1	61.8
CCCCCCCCCCCCCCCCCCOP(=O)([O-])OC1CC[N+](C)(C)CC1 [Perifosine] + Oc1nc(-c2ccc(C(F)(F)F)cc2)nc2c1CSCC2 [XAV939] (first compound 0.4 µM, partner dose 2 µM)	112	109	104	170	84.3	43.4
COc1cc([C@@H]2c3cc4c(cc3[C@@H](O[C@@H]3O[C@@H]5CO[C@@H](C)O[C@H]5[C@H](O)[C@H]3O)[C@H]3COC(=O)[C@H]23)OCO4)cc(OC)c1O [etoposide] + CNC(=O)c1cc(Oc2ccc(NC(=O)Nc3ccc(Cl)c(C(F)(F)F)c3)cc2)ccn1 [sorafenib] (first compound 0.02 µM, partner dose 0.4 µM)	57.5	113	101	89.5	91.8	67.2
COc1cc([C@@H]2c3cc4c(cc3[C@@H](O[C@@H]3O[C@@H]5CO[C@@H](C)O[C@H]5[C@H](O)[C@H]3O)[C@H]3COC(=O)[C@H]23)OCO4)cc(OC)c1O [etoposide] + COCC[n+]1c2c(n(Cc3cnccn3)c1C)C(=O)c1ccccc1C2=O [YM155] (first compound 0.02 µM, partner dose 0.0004 µM)	78.4	149	104	39.5	87.9	49.8
O=C(Nc1cc(C(F)(F)F)cc(C(F)(F)F)c1)c1cc(Cl)ccc1O + Cc1cc([N+](=O)[O-])ccc1NS(=O)(=O)c1cc(Cl)ccc1Cl [FH535] (first compound 0.016 µM, partner dose 1 µM)	77.5	110	86.7	67.5	91.5	76.5
CCCCCCCCCCCCCCCCCCOP(=O)([O-])OC1CC[N+](C)(C)CC1 [Perifosine] + COc1cc2ncnc(Nc3ccc(Oc4ccccc4)cc3)c2cc1OC [SrcI1] (first compound 0.4 µM, partner dose 2 µM)	177	48.3	86.9	92.9	70.8	104
Cc1cn(-c2cc(NC(=O)c3ccc(C)c(Nc4nccc(-c5cccnc5)n4)c3)cc(C(F)(F)F)c2)cn1 [nilotinib] + O=C(O)c1ccc2c(c1)nc(Nc1cccc(Cl)c1)c1ccncc12 [CX4945] (first compound 0.2 µM, partner dose 0.4 µM)	106	79.9	108	82.4	90	29
Cc1cn(-c2cc(NC(=O)c3ccc(C)c(Nc4nccc(-c5cccnc5)n4)c3)cc(C(F)(F)F)c2)cn1 [nilotinib] + CO[C@H]1C[C@@H]2CC[C@@H](C)[C@@](O)(O2)C(=O)C(=O)N2CCCC[C@H]2C(=O)O[C@H]([C@H](C)C[C@@H]2CC[C@@H](OCCO)[C@H](OC)C2)CC(=O)[C@H](C)/C=C(\C)[C@@H](O)[C@@H](OC)C(=O)[C@H](C)C[C@H](C)/C=C/C=C/C=C/1C [everolimus] (first compound 0.2 µM, partner dose 0.02 µM)	113	26.1	125	216	100	46.5
Cc1cc(Nc2cc(N3CCN(C)CC3)nc(Sc3ccc(NC(=O)C4CC4)cc3)n2)n[nH]1 [Tozasertib] + CNC(=O)c1cc(Oc2ccc(NC(=O)Nc3ccc(Cl)c(C(F)(F)F)c3)cc2)ccn1 [sorafenib] (first compound 0.006 µM, partner dose 0.4 µM)	148	115	106	153	115	110
O=C(Nc1cc(C(F)(F)F)cc(C(F)(F)F)c1)c1cc(Cl)ccc1O + CCCCCCCCCCCCCCCCCCOP(=O)([O-])OC1CC[N+](C)(C)CC1 [Perifosine] (first compound 0.016 µM, partner dose 0.4 µM)	159	74.4	93.3	443	101	376
O=c1[nH]nc(Sc2ncc([N+](=O)[O-])s2)n1-c1ccc2c(c1)OCCO2 + Cc1cc(N2CCOCC2)cc2[nH]c(-c3c(NC[C@@H](O)c4cccc(Cl)c4)cc[nH]c3=O)nc12 [BMS536924] (first compound 0.2 µM, partner dose 0.2 µM)	104	37.6	118	65.1	93.6	127
N#CC[C@H](C1CCCC1)n1cc(-c2ncnc3[nH]ccc23)cn1 [ruxolitinib] + NC(=O)c1ccc(N(C(N)=O)c2c(F)cccc2F)nc1-c1ccc(F)cc1F [VX702] (first compound 1 µM, partner dose 0.4 µM)	75.8	119	90.2	370	86.4	75.5

Looked up one by one from the list above (two):
SMILES	cleaved PARP positive nuclei fraction (WM115) [%]	cleaved PARP positive nuclei fraction (WM1716) [%]	cleaved PARP positive nuclei fraction (WM1745) [%]	cleaved PARP positive nuclei fraction (WM3526) [%]	cleaved PARP positive nuclei fraction (WM3619) [%]	cleaved PARP positive nuclei fraction (WM451Lu) [%]
CCCCCCCCCCCCCCCCCCOP(=O)([O-])OC1CC[N+](C)(C)CC1 [Perifosine] + COc1cc2ncnc(Nc3ccc(Oc4ccccc4)cc3)c2cc1OC [SrcI1] (first compound 0.4 µM, partner dose 2 µM)	177	48.3	86.9	92.9	70.8	104
Cc1cc(Nc2cc(N3CCN(C)CC3)nc(Sc3ccc(NC(=O)C4CC4)cc3)n2)n[nH]1 [Tozasertib] + Cc1cc(N2CCOCC2)cc2[nH]c(-c3c(NC[C@@H](O)c4cccc(Cl)c4)cc[nH]c3=O)nc12 [BMS536924] (first compound 0.006 µM, partner dose 0.2 µM)	104	79	114	125	101	56.9

From the supplement of paper PMC4604168 (melanoma cell lines)
